Experimental data: paper PMC5006124

Biological target: Flag-tagged HCV non-structural protein NS5B (hepatitis C virus)
Assay: co-IP; HEK293T co-transfected with HA-tagged TRIM14 or truncations and Flag-tagged HCV proteins, 24 h; lysis in 20 mM Tris pH 8.0, 150 mM NaCl, 1% TritonX-100, 1 mM EDTA; immunoprecipitated using anti-Flag, 4 °C, 6-8 hours; western blot

B1: HA-tagged TRIM14 (tripartite motif 14) (protein, UniProt Q14142 1-442)
chain: MAGAATGSRTPGRSELVEGCGWRCPEHGDRVAELFCRRCRRCVCALCPVLGAHRGHPVGLALEAAVHVQKLSQECLKQLAIKKQQHIDNITQIEDATEKLKANAESSKTWLKGKFTELRLLLDEEEALAKKFIDKNTQLTLQVYREQADSCREQLDIMNDLSNRVWSISQEPDPVQRLQAYTATEQEMQQQMSLGELCHPVPLSFEPVKSFFKGLVEAVESTLQTPLDIRLKESINCQLSDPSSTKPGTLLKTSPSPERSLLLKYARTPTLDPDTMHARLRLSADRLTVRCGLLGSLGPVPVLRFDALWQVLARDCFATGRHYWEVDVQEAGAGWWVGAAYASLRRRGASAAARLGCNRQSWCLKRYDLEYWAFHDGQRSRLRPRDDLDRLGVFLDYEAGVLAFYDVTGGMSHLHTFRATFQEPLYPALRLWEGAISIPRLP
- binding: binds

These are yes or no findings as the source states them, for the method shown. In cells and extracts the contact can be indirect. A result given as binding can be weak or reduced; the word gives no strength. Sequences can lack the tags named with a protein.
